Assay results taken from patent US20250042957A1.
Results are given in words; binding and its absence hold for the method and conditions named. Binding can be weak; no strength is given.

Experiments:
scCD3εγ [1] = assay: ELISA: plate-bound biotinylated scCD3εγ, His-tagged construct titrated without and with 100 nM soluble VEGF
scCD3εγ [2] = assay: ELISA, biotinylated scCD3εγ, with or without 100 nM VEGF
scCD3εγ [3] = assay: HTRF: 20 nM His-tagged construct, 1 nM biotinylated scCD3εγ, Tb-streptavidin donor and d2-labelled antibody acceptor, without and with 100 nM soluble VEGF
scCD3εγ [4] = assay: HTRF, 20 nM construct, 1 nM bio-scCD3εγ, absence against presence of 100 nM VEGF
scCD3εγ [5] = assay: ELISA, biotinylated scCD3εγ on neutravidin plate, with 100 nM VEGF
scCD3εγ [6] = assay: ELISA: plate-bound biotinylated scCD3εγ, His-tagged construct titrated without VEGF, or 10 nM construct with titrated soluble VEGF
scCD3εγ [7] = assay: ELISA, bio-scCD3εγ, 10 nM construct, VEGF 100 nM to ~0.1 nM
scCD3εγ [8] = assay: ELISA, biotinylated scCD3εγ, construct constant, VEGF titrated
scCD3εγ [9] = assay: ELISA: plate-bound biotinylated scCD3εγ, His-tagged α-CD3 mono-DARPin titrated without and with 100 nM soluble VEGF
scCD3εγ [10] = assay: ELISA, biotinylated scCD3εγ on neutravidin plate, with or without 100 nM VEGF
scCD3εγ [11] = assay: ELISA on scCD3εγ, DARPin titrated
scCD3εγ [12] = assay: multi-trace SPR
scCD3εγ [13] = assay: ELISA: plate-bound biotinylated scCD3εγ, His-tagged α-CD3 mono-DARPin titrated, no VEGF

Measured: binding

B1: Switchdrug DARPin 18-B (designed binder)
chain: MRGSHHHHHHGSDLDKKLLEAARAGQDDEVRILLKAGADVNAKDSTGWTPLHLAAPWGHPEIVEVLLKAGADVNAKDFQGWTPLHLAAAAGHLEIVEVLLKAGADVNAKDVYGWTPLHIAAASGHLEIVEVLLKAGADVNAKDWLGWTPLHLAASHGHLEIVEVLLKAGADVNAQDKSGKTPADLAARAGHQDIAEVLQKAAGSPTPTPTTPTPTPTTPTPTPTGSDLGKKLLQAARAGQLDEVRELLKAGADVNAKDQYGRTPLHLAAIKGHLEIVEVLLKAGADVNAKDSLGYTPLHLAAVEGPLEIVEVLLKAGADVNAKDAYGQTPLHIAAAWGHLEIVEVLLKAVADVNAQDKSGKTPADLAARAGHQDIAEVLQKAAGSPTPTPTTPTPTPTTPTPTPTGSDLGQKLLEAAWAGQDDEVRELLKAGADVNAKNSRGWTPLHTAAQTGHLEIFEVLLKAGADVNAKNDKRVTPLHLAAALGHLEIVEVLLKAGADVNARDSWGTTPADLAAKYGHQDIAEVLQKAA
binds: scCD3εγ [1] | scCD3εγ [2]

B2: Switchdrug DARPin 15-3 (designed binder)
chain: MRGSHHHHHHGSDLDKKLLEAARAGQDDEVRILLKAGADVNAKDSTGWTPLHLAAPWGHPEIVEVLLKAGADVNAKDFQGWTPLHLAAAAGHLEIVEVLLKAGADVNAKDWLGWTPLHLAASHGHLEIVEVLLKAGADVNAQDKSGKTPADLAARAGHQDIAEVLQKAAGSPTPTPTTPTPTPTTPTPTPTGSDLGKKLLEAARAGQDDEVRELLKAGADVNAKDKDGYTPLHLAAREGHLEIVEVLLKAGADVNAKDKDGYTPLHLAAREGHLEIVEVLLKAGADVNAQDKSGKTPADLAADAGHEDIAEVLQKAAGSPTPTPTTPTPTPTTPTPTPTGSDLGQKLLEAAWAGQDDEVRELLKAGADVNAKNSRGWTPLHTAAQTGHLEIFEVLLKAGADVNAKNDKRVTPLHLAAALGHLEIVEVLLKAGADVNARDSWGTTPADLAAKYGHQDIAEVLQKAA
binds: scCD3εγ [3] | scCD3εγ [4] | scCD3εγ [1] | scCD3εγ [2]

B3: Switchdrug DARPin 18-A (designed binder)
chain: MRGSHHHHHHGSDLGKKLLQAARAGQLDEVRELLKAGADVNAKDQYGRTPLHLAAIKGHLEIVEVLLKAGADVNAKDSLGYTPLHLAAVEGPLEIVEVLLKAGADVNAKDAYGQTPLHIAAAWGHLEIVEVLLKAVADVNAQDKSGKTPADLAARAGHQDIAEVLQKAAGSPTPTPTTPTPTPTTPTPTPTGSDLGQKLLEAAWAGQDDEVRELLKAGADVNAKNSRGWTPLHTAAQTGHLEIFEVLLKAGADVNAKNDKRVTPLHLAAALGHLEIVEVLLKAGADVNARDSWGTTPADLAAKYGHQDIAEVLQKAAGSPTPTPTTPTPTPTTPTPTPTGSDLDKKLLEAARAGQDDEVRILLKAGADVNAKDSTGWTPLHLAAPWGHPEIVEVLLKAGADVNAKDFQGWTPLHLAAAAGHLEIVEVLLKAGADVNAKDVYGWTPLHIAAASGHLEIVEVLLKAGADVNAKDWLGWTPLHLAASHGHLEIVEVLLKAGADVNAQDKSGKTPADLAARAGHQDIAEVLQKAA
binds: scCD3εγ [1] | scCD3εγ [2]

B4: Switchdrug DARPin 17-B (designed binder)
chain: MRGSHHHHHHGSDLGKKLLQAARAGQLDEVRELLKAGADVNAKDSTGWTPLHLAAPWGHPEIVEVLLKAGADVNAKDFQGWTPLHLAAAAGHLEIVEVLLKAGADVNAKDWLGWTPLHLAASHGHLEIVEVLLKAGADVNAQDKSGKTPADLAARAGHQDIAEVLQKAAGSPTPTPTTPTPTPTTPTPTPTGSDLGKKLLQAARAGQLDEVRELLKAGADVNAKDQYGRTPLHLAAIKGHLEIVEVLLKAGADVNAKDSLGYTPLHLAAVEGPLEIVEVLLKAGADVNAKDAYGQTPLHIAAAWGHLEIVEVLLKAVADVNAQDKSGKTPADLAARAGHQDIAEVLQKAAGSPTPTPTTPTPTPTTPTPTPTGSDLGQKLLEAAWAGQDDEVRELLKAGADVNAKNSRGWTPLHTAAQTGHLEIFEVLLKAGADVNAKNDKRVTPLHLAAALGHLEIVEVLLKAGADVNARDSWGTTPADLAAKYGHQDIAEVLQKAA
binds: scCD3εγ [5] | scCD3εγ [1] | scCD3εγ [2]

B5: Switchdrug DARPin 17-1 (designed binder)
chain: MRGSHHHHHHGSDLGQKLLEAAWAGQDDEVRELLKAGADVNAKNSRGWTPLHTAAQTGHLEIFEVLLKAGADVNAKNDKRVTPLHLAAALGHLEIVEVLLKAGADVNARDSWGTTPADLAAKYGHQDIAEVLQKAAGSPTPTPTTPTPTPTTPTPTPTGSDLGKKLLQAARAGQLDEVRELLKAGADVNAKDSTGWTPLHLAAPWGHPEIVEVLLKAGADVNAKDFQGWTPLHLAAAAGHLEIVEVLLKAGADVNAKDWLGWTPLHLAASHGHLEIVEVLLKAGADVNAQDKSGKTPADLAARAGHQDIAEVLQKAA
binds: scCD3εγ [6] | scCD3εγ [7] | scCD3εγ [8] | scCD3εγ [1] | scCD3εγ [2]

B6: CD3-specific binding domain (SEQ ID NO: 3) (designed binder)
chain: DLGQKLLEAAWAGQDDEVRELLKAGADVNAKNSRGWTPLHTAAQTGHLEIFEVLLKAGADVNAKNDKRVTPLHLAAALGHLEIVEVLLKAGADVNARDSWGTTPADLAAKYGHQDIAEVLQKAA
modifications: biotinylated when used as immobilized SPR ligand (site not stated)
binds: scCD3εγ [9] | scCD3εγ [10] | scCD3εγ [11] | scCD3εγ [12] | scCD3εγ [13]

B7: Switchdrug DARPin 17-A (designed binder)
chain: MRGSHHHHHHGSDLGKKLLQAARAGQLDEVRELLKAGADVNAKDQYGRTPLHLAAIKGHLEIVEVLLKAGADVNAKDSLGYTPLHLAAVEGPLEIVEVLLKAGADVNAKDAYGQTPLHIAAAWGHLEIVEVLLKAVADVNAQDKSGKTPADLAARAGHQDIAEVLQKAAGSPTPTPTTPTPTPTTPTPTPTGSDLGQKLLEAAWAGQDDEVRELLKAGADVNAKNSRGWTPLHTAAQTGHLEIFEVLLKAGADVNAKNDKRVTPLHLAAALGHLEIVEVLLKAGADVNARDSWGTTPADLAAKYGHQDIAEVLQKAAGSPTPTPTTPTPTPTTPTPTPTGSDLGKKLLQAARAGQLDEVRELLKAGADVNAKDSTGWTPLHLAAPWGHPEIVEVLLKAGADVNAKDFQGWTPLHLAAAAGHLEIVEVLLKAGADVNAKDWLGWTPLHLAASHGHLEIVEVLLKAGADVNAQDKSGKTPADLAARAGHQDIAEVLQKAA
binds: scCD3εγ [1] | scCD3εγ [2]
